Reference: paper PMC6748134
No constants are given. Whether binding was seen depends on the method and setting. In cells and extracts the contact can be indirect. Binding calls can cover weak binding; strength is not graded here.

Target: T1, Bicaudal D homolog 1 (human (endogenous in UCB-MSCs)) (UniProt Q96G01)
T1 sequence: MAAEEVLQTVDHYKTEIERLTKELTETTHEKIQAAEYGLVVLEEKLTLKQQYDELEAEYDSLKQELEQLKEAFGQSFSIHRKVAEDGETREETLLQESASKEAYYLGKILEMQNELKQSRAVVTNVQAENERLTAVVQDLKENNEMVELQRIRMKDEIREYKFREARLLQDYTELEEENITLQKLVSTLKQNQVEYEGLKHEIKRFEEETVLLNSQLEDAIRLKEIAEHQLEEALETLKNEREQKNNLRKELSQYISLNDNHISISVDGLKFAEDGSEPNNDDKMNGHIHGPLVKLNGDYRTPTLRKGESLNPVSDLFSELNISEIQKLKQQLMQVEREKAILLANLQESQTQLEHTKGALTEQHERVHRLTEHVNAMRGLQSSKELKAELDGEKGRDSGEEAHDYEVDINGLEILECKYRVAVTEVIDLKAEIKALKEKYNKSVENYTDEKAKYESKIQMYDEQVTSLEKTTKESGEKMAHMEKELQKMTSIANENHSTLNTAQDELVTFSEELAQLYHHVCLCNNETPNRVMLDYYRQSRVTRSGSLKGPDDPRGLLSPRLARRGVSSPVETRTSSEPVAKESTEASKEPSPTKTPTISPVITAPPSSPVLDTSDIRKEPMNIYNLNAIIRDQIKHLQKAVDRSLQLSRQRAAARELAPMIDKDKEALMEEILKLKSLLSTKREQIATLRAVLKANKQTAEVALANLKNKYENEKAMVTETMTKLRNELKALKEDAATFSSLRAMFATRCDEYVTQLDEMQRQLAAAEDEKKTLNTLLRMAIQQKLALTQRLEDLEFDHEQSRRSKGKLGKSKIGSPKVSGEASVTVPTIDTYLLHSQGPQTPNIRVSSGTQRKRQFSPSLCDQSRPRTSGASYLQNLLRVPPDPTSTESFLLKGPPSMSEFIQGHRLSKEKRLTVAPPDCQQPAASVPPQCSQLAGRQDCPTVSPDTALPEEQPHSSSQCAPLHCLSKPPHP
Assay: co-IP; UCB-MSC lysates (20 mM Tris-HCl pH 8.0, 137 mM NaCl, 1% Nonidet P-40, 2 mM EDTA); primary antibody on Protein G magnetic beads, 6 h at 4 C; western blot; cells under normoxia or hypoxia 24 h, in some panels with MG132, wortmannin, ciliobrevin D, CoCl2 or NT siRNA

## Akt (human (endogenous in UCB-MSCs))
  binding: binds

## α-Tubulin (human (endogenous in UCB-MSCs))
  binding: binds
